# No constants are given. Whether binding was seen depends on the method and setting. Binding seen in cells or lysates may run through a third protein. Some entries that bind do so weakly or less than the wild type.
# The chains behind the UniProt entries cited, without tags or fusion partners. Where a name states a change or a piece, a line headed by the entry shows the natural chain unless it says otherwise. A line that says so, or that is headed by a name, gives the form on record, which may keep a tag or linker.
# UniProt P18850: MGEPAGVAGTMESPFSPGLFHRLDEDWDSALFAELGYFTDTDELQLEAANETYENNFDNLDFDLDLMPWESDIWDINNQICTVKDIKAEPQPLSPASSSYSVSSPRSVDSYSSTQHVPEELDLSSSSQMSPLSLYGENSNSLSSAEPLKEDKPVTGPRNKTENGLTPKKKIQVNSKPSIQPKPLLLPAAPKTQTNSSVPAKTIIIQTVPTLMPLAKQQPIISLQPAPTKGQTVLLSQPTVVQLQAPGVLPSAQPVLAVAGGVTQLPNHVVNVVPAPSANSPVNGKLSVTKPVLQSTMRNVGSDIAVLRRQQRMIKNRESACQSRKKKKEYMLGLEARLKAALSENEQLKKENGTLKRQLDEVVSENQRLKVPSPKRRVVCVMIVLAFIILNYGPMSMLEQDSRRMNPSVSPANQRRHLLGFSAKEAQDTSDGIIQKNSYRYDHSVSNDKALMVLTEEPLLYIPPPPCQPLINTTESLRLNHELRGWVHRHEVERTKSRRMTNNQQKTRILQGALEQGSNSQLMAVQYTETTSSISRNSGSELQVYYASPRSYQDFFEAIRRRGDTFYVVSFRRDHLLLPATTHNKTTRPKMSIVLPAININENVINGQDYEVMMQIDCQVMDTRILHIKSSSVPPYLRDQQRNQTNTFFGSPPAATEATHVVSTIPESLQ
# STK26 (MST4) (Q9P289-3, form named): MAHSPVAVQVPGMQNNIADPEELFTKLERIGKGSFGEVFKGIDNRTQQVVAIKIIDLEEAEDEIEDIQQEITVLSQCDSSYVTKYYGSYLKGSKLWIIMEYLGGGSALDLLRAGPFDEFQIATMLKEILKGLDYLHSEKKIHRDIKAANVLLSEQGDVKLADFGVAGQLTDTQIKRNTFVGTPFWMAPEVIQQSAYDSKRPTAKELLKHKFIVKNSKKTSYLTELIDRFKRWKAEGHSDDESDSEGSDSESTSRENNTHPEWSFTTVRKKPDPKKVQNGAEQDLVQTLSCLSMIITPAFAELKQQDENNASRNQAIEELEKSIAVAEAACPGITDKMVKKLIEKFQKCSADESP
# Biological target: 90 kDa ATF6 (p90) (human (endogenous in SW480)) (UniProt P18850)
# Assay: co-IP; endogenous proteins in SW480 cell lysate; lysis buffer 20 mM Tris-HCl pH 7.4, 150 mM NaCl, 0.5% Triton X-100 with protease and phosphatase inhibitors; 1-3 μg antibody and protein A/G agarose beads, 4 °C overnight; three washes, SDS-PAGE
substance,measurement,value
STK26 (MST4) (from UniProt Q9P289-3 1-354) (enzyme),binding,binds
